Results deposited as PubChem BioAssay AID504764 (Drosophila RNAi Screening Center, 2011).

Screen: 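Genome-wide screen for regulators of Notch-driven gene expression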 (primary screen)
System: Drosophila Kc167 cells
Reagent: long dsRNA against Drosophila genes
Duration: about 5 days (4 days dsRNA, then 24 h after transfection)
Treatment: transfection of constitutively active membrane-tethered Notch lacking the extracellular domain, read 24 h later
Measurement: 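Firefly luciferase from an E(spl)m3 reporter with active Notch, plus control-promoter and uninduced reporter wells for normalisation; unnormalised counts, duplicate wells a and b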
Scale: induced reporter light, run 1, well a and induced reporter light, run 1, well b: higher = more light from the Notch target reporter with active Notch; control promoter light, run 1, well a and control promoter light, run 1, well b: higher = more light from the viral control promoter (cell number, transfection, viability); uninduced reporter light, run 1, well a: higher = more light from the Notch target reporter without active Notch
Hit rule: 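Wells with low control signal or poorly matching duplicates excluded; duplicates averaged; per source plate, z beyond ±2 for induced/control log2 ratio or beyond ±1.8 for induced/uninduced marks a hit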
Calls: active = modifier hit (raised or lowered Notch signal); inactive = not a hit
The screen tested about 22,000 reagents; below is an unselected part of those with a known target gene and a result. Of all reagents, 403 (1.9%) were called active. 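Unnormalised raw counts per well; ratio z-scores behind the hit calls and whether each hit raises or lowers signal are not deposited.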 Entries without a mark were called inactive. No sequences are given here. Not stated in the record: the amount of reagent.

With knock-down of Tm1 (Tropomyosin 1) [DRSC13082] the results were induced reporter light, run 1, well a = 1.48e5; induced reporter light, run 1, well b = 1.12e5; control promoter light, run 1, well a = 1.64e5; control promoter light, run 1, well b = 1.76e5; uninduced reporter light, run 1, well a = 10988.
Against Tm1 (Tropomyosin 1) [DRSC13083], the entry reads induced reporter light, run 1, well a = 1.39e5; induced reporter light, run 1, well b = 1.26e5; control promoter light, run 1, well a = 1.63e5; control promoter light, run 1, well b = 2.01e5; uninduced reporter light, run 1, well a = 10360.
Tm1 (Tropomyosin 1) [DRSC16886] scored induced reporter light, run 1, well a = 1.03e5; induced reporter light, run 1, well b = 1.06e5; control promoter light, run 1, well a = 89160; control promoter light, run 1, well b = 85745; uninduced reporter light, run 1, well a = 9445.
CG12231 [DRSC19445] gave induced reporter light, run 1, well a = 77685; induced reporter light, run 1, well b = 60045; control promoter light, run 1, well a = 81695; control promoter light, run 1, well b = 1.11e5; uninduced reporter light, run 1, well a = 9700.
Knock-down of Mst87F (Male-specific RNA 87F) [DRSC16747] came out at: induced reporter light, run 1, well a = 1.93e5; induced reporter light, run 1, well b = 1.74e5; control promoter light, run 1, well a = 1.82e5; control promoter light, run 1, well b = 1.88e5; uninduced reporter light, run 1, well a = 15225.
For Ctl2 (Choline transporter-like 2) [DRSC14423], the entry reads induced reporter light, run 1, well a = 1.81e5; induced reporter light, run 1, well b = 2.17e5; control promoter light, run 1, well a = 2.29e5; control promoter light, run 1, well b = 2.22e5; uninduced reporter light, run 1, well a = 12545.
bol (boule) [DRSC08964] gave induced reporter light, run 1, well a = 1.96e5; induced reporter light, run 1, well b = 1.94e5; control promoter light, run 1, well a = 2.10e5; control promoter light, run 1, well b = 1.80e5; uninduced reporter light, run 1, well a = 12635.
After knock-down of bol (boule) [DRSC10444] the results were induced reporter light, run 1, well a = 2.04e5; induced reporter light, run 1, well b = 2.59e5; control promoter light, run 1, well a = 2.99e5; control promoter light, run 1, well b = 2.44e5; uninduced reporter light, run 1, well a = 11080.
For bol (boule) [DRSC11329], the values are induced reporter light, run 1, well a = 1.39e5; induced reporter light, run 1, well b = 1.45e5; control promoter light, run 1, well a = 2.21e5; control promoter light, run 1, well b = 1.80e5; uninduced reporter light, run 1, well a = 12885.
CG3770 [DRSC04416] showed induced reporter light, run 1, well a = 2.42e5; induced reporter light, run 1, well b = 2.28e5; control promoter light, run 1, well a = 1.85e5; control promoter light, run 1, well b = 1.92e5; uninduced reporter light, run 1, well a = 18800.
Depletion of CG3434 [DRSC10365] resulted in: induced reporter light, run 1, well a = 1.24e5; induced reporter light, run 1, well b = 1.00e5; control promoter light, run 1, well a = 75260; control promoter light, run 1, well b = 35895; uninduced reporter light, run 1, well a = 10850.
After knock-down of CG7017 [DRSC10762], the record shows induced reporter light, run 1, well a = 87590; induced reporter light, run 1, well b = 1.01e5; control promoter light, run 1, well a = 1.18e5; control promoter light, run 1, well b = 73680; uninduced reporter light, run 1, well a = 5200.

Just “induced reporter light, run 1, well a” (2 entries from above):
bol (boule) [DRSC11329]	1.39e5
CG3770 [DRSC04416]	2.42e5
